# Test results from PubChem BioAssay AID493014 (National Center for Advancing Translational Sciences (NCATS), 2011).
# This is one part of the list. Shown are side measurements of this screen, not its main read-out; they come without a call. Compounds called inactive in the main read-out are mostly missing here. Potencies come from curve fits of mixed quality, noted in brackets.
# Assay: qHTS Assay to Find Inhibitors of Chronic Active B-Cell Receptor Signaling
# Conditions: ABC-DLBCL IkBa-CBG/CBR reporter, luminescence ratio (green luciferase fused to IkBa over red control in TMD8 lymphoma cells), 4 h; measured here: CBR red luminescence, cell number
# How it was run: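 Cell line TMD8 (human ABC DLBCL), stably expressing tet-inducible CBG68-IkBa fusion and CBR; IMDM/0.5% FBS; cpd up to 46 uM; dox induction, 4 h, 37C/5% CO2; dual luminescence; green/red ratio; MG132 control.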
row,Compound,AC50
1,COc1ccc(-c2cc(=O)c(C(=O)c3ccc(C)cc3)n[nH]2)cc1,"0.2 µM [falling, partial curve, poor fit]"
2,Nc1nccnc1C(=O)OCC(=O)c1ccc[nH]1,"20.6 µM [falling, partial curve, poor fit]"
3,COc1ccc(-c2cc(=O)oc3c(C)c(OCC(=O)NCCCn4ccnc4)ccc23)cc1,"6.31 µM [rising, single point]"
4,Cc1ccccc1C(=O)N1CCC(C(=O)Nc2cc(C(F)(F)F)ccc2N2CCCC2)CC1,"18.4 µM [falling, single point]"
5,O=S(=O)(NCC(c1ccco1)N1CCCCC1)c1ccccc1C(F)(F)F (configuration not stated),"25.9 µM [falling, single point]"
6,COc1ccccc1-c1cc2ccccc2[nH]1,"0.184 µM [rising, full curve, poor fit]"
7,Cc1nc2ccccc2c2nc(NC(=O)Cc3ccccc3)nn12,"0.184 µM [falling, full curve, poor fit]"
8,CC(C)C(C(=O)NCc1ccco1)N(C(=O)CNS(=O)(=O)c1ccccc1)C1CCCC1 (configuration not stated),"35.5 µM [falling, single point]"
9,N/C(=N\OC(=O)c1ccccc1Cl)c1cccc([N+](=O)[O-])c1,"5.62 µM [rising, partial curve, poor fit]"
10,CCOc1ccc(CNC(=O)CCCOc2cc(=O)n(C)c3ccccc23)cc1,"25.9 µM [falling, single point]"
11,CCOC(=O)C1CCCN(c2c(NCCN3CCCCC3CC)c(=O)c2=O)C1 (configuration not stated),"1.46 µM [rising, partial curve, poor fit]"
12,COc1ccc(-c2coc3cc(O)ccc3c2=O)cc1O,"0.891 µM [falling, full curve]"
13,CCN(CC)CCCN=Cc1c(-c2ccccc2)[nH]n(-c2nc3ccccc3s2)c1=O,"31.6 µM [falling, single point]"
14,O=C(Nc1ccc2c(c1)Cc1ccccc1-2)c1ccncc1,"3.26 µM [rising, partial curve, poor fit]"
15,Cc1ncc(CO)c(/C=N/NC(=O)c2ccoc2C)c1O,"29.1 µM [falling, single point]"
16,Fc1ccc(-c2cc(C(F)(F)F)nc(-n3cc(Cl)cn3)n2)cc1,"5.62 µM [falling, single point]"
17,CCOc1ccc(NC(=O)c2c(NCc3cccnc3)sc3c2CCCC3)cc1,"10 µM [falling, partial curve]"
18,Cc1cc(N2CCCCC2)nc(-c2ccc(Br)cc2)n1,"35.5 µM [rising, single point]"
19,Fc1ccccc1-c1nc(NCc2ccco2)c2ccccc2n1,"35.5 µM [falling, single point]"
20,CCOC(=O)c1ccc(NC(=O)N2CCN(S(C)(=O)=O)CC2)cc1,"29.1 µM [rising, single point]"
21,Fc1cc(NCc2ccccc2)nc(NCc2ccccc2)n1,"32.6 µM [falling, single point]"

row,Compound,AC50
1,Cc1ccccc1NC1=C(Cl)C(=O)N(C2CCCCC2)C1=O,"1.84 µM [falling, partial curve, poor fit]"
2,O=C(CSc1nnc(-c2ccccc2F)o1)N1CCNC1=O,"6.51 µM [falling, single point]"
3,O=C(O)CCCC(=O)Nc1ccc(Br)cc1C(=O)O,"5.8 µM [falling, partial curve]"
4,Cc1ccc(NC(=O)/C(=C/c2cccc([N+](=O)[O-])c2)NC(=O)C2CCCCC2)cc1,"3.66 µM [falling, single point]"
5,CC(C)C(NC(=O)c1ccccc1F)C(=O)NCCc1ccccn1 (configuration not stated),"0.562 µM [rising, full curve, poor fit]"
6,NC(=O)c1oc2ccccc2c1NC(=O)CCc1ccccc1,"14.6 µM [falling, partial curve, poor fit]"
7,O=C(CNC(=O)c1ccco1)OCC(=O)c1ccc([N+](=O)[O-])cc1,"17.8 µM [falling, single point]"
8,O=C(Nc1nccs1)c1cc(-c2ccccc2)nn1-c1ccccc1,"0.00651 µM [rising, full curve, poor fit]"
9,O=[N+]([O-])c1ccc(N/N=C/c2cccnc2)cc1,"3.55 µM [rising, full curve, poor fit]"
10,CCOC(=O)Cc1csc(NC(=O)c2ccc3ccccc3n2)n1,"2 µM [falling, full curve]"
11,CCOc1ccc(-c2nnc(SCC(=O)N(CC)CC)n2N)cc1,"3.98 µM [falling, partial curve, poor fit]"
12,CC(=O)N1c2ccccc2C(C)(c2ccccc2)CC1(C)C (configuration not stated),"0.00517 µM [falling, full curve, poor fit]"
13,COc1ccc(CNC(=O)C(=O)NCC2OCCN2S(=O)(=O)c2ccc3c(c2)OCCO3)cc1 (configuration not stated),"7.31 µM [rising, partial curve, poor fit]"
14,Cc1ccccc1Nc1nc(N)nc(CCl)n1,"35.5 µM [falling, single point]"
15,O=S(=O)(NCC(c1cccs1)S(=O)(=O)c1ccccc1)c1ccc(F)cc1 (configuration not stated),"0.794 µM [falling, single point]"
16,O=C(NC(=S)Nc1ccc2c(c1)OCCO2)c1ccc(F)cc1Cl,"14.6 µM [falling, partial curve, poor fit]"
17,O=C(NC1CCCc2ccccc21)c1ccc(F)cc1F (configuration not stated),"3.55 µM [rising, full curve, poor fit]"
18,COc1ccc(CCNC(=O)CSc2nnc(-c3ccc(F)cc3)c3ccccc23)cc1OC,"32.6 µM [falling, partial curve, poor fit]"
19,COc1ccc2c(Cl)c(C(=O)NCCCn3ccnc3)sc2c1,"10.3 µM [rising, partial curve, poor fit]"
20,Cc1ccsc1C(=O)OCC(=O)NCc1ccccc1,"0.206 µM [rising, partial curve, poor fit]"
21,Cc1ccc(S(=O)(=O)Nc2ccccc2/C=N/c2nc3ccccc3n2C)cc1,"3.26 µM [rising, partial curve, poor fit]"

# Retrieved by structure from the entries so far, 4 records:
row,Compound,AC50
15,O=S(=O)(NCC(c1cccs1)S(=O)(=O)c1ccccc1)c1ccc(F)cc1 (configuration not stated),"0.794 µM [falling, single point]"
6,NC(=O)c1oc2ccccc2c1NC(=O)CCc1ccccc1,"14.6 µM [falling, partial curve, poor fit]"
16,O=C(NC(=S)Nc1ccc2c(c1)OCCO2)c1ccc(F)cc1Cl,"14.6 µM [falling, partial curve, poor fit]"
8,O=C(Nc1nccs1)c1cc(-c2ccccc2)nn1-c1ccccc1,"0.00651 µM [rising, full curve, poor fit]"
